Test results reported in patent US6372772B1, “Inhibitors of redox signaling and methods of using same” (Prolx Pharmaceuticals Corporation, priority 1997, dated 2002).
Some entries share one result that the patent states for a list of compounds.

Target: T1, thioredoxin reductase (Homo sapiens, UniProt Q16881)
T1 sequence (Q16881 1-499 isoform Q16881-5): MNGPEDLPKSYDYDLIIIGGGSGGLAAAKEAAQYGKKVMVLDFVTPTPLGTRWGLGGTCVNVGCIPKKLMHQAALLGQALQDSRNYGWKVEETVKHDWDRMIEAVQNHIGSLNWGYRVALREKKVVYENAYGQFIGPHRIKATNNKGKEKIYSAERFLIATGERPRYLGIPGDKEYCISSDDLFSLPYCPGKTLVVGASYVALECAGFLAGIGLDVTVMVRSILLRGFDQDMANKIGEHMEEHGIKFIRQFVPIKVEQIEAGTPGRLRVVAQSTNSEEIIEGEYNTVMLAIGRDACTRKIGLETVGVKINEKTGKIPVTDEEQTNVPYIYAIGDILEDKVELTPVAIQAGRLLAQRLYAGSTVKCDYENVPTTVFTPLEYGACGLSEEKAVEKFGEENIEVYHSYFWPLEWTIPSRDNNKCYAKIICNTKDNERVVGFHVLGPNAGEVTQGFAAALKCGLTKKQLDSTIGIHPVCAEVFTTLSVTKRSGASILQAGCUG

## COC(=O)C(CBr)CBr [NSC 620109]
  selectivity ratio: > 100
